Screen size: about 53,000 sequences; about 3,700 (7%) were called active.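 How the source made its calls: active means gene knockdowns whose robust z-score for IL-1 alpha signal is at least 2 or at most -2, so actives lie on both sides; inactive means the rest.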 The list shows a part of the results.
experiment: Components of the Cytosolic LPS Sensing Pathway: Gene Identification via Genome-wide siRNA Screen; conditions: RAW264.7 macrophages, IL-1a HTRF, actives lie on both sides, screened at 100 nM (by protocol), cells primed 5 h with Pam3CSK4 first;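 further: robust z of the log signal after scaling to non-targeting control siRNA wells of the plate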
Method in brief: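 Using IL-1a HTRF as read-out, the screen measured release from RAW264.7 cells after 48h siRNA knockdown (100 nM), 5 h Pam3CSK4 priming and 24 h cytosolic LipidA. Values were expressed relative to negative-control wells as robust z-scores.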

Row | Sequence | z-score
1 | GGAAAUGAAUUUUGGAAUCTT against Inpp5k | inactive: -0.271
2 | CCCUUUUUUUUCUAGCACCTT against Gjd4 | inactive: 0.97
3 | CCUUGUCGAGCACAUGAGATT against Zfp69 | inactive: 0.0825
4 | GGGCAGUUUUACUUUGUAATT against Golga2 | inactive: -1.75
5 | GCAGCAGUGUUCACCAAAATT against Aldh1a3 | inactive: -0.73
6 | CCAUGAAACUUAAAAUCCUTT against Tmem30b | inactive: -0.392
7 | GCUUCUCCUCUUUGGAUUATT against Olfr866 | inactive: 1.05
8 | GGGAGAAAAGGGUCAAAAATT against Marco | inactive: 0.819
9 | GGCGAGCAUGAUCAUCCCATT against Gcm1 | inactive: -0.697
10 | GGCAUCCAAUGAUUACAAATT against Ubash3a | inactive: 0.351
11 | GCAAUUUGGAACACCUAAGTT against Fam76b | inactive: 1.97
12 | GUGUGGUCACCAUUGUCCUTT against Ptprcap | inactive: 1.7
13 | CCUGUAUUUUACGAUCUUUTT against Best1 | inactive: 0.103
14 | CCCUUUGAUAUGAAGUCAATT against Copg2 | inactive: -0.737
15 | GGAAAUGCAGAACCGAACATT against Echs1 | inactive: -0.0673
16 | GGUGUCGCUUUUUUAUCAATT against Elp1 | inactive: 0.128
17 | GGGCUAAGGACAGAAUUACTT against Tusc2 | inactive: -0.0196
18 | GCUCAAACCUUGUCUUUAUTT against Acrv1 | inactive: -1.11
19 | GCAUAAGGACCCUUUGUCATT against Rasl10b | inactive: -1.27
20 | GGUAAAUGGUUUAACUACGTT against Tmem117 | inactive: -0.68
21 | GGUCCUGUUAGUGUUUACCTT against Pde8a | inactive: -0.123
22 | CGGAUCCUGGUCACCAUUUTT against Olfr95 | inactive: 0.662
23 | GCUCCUUUUUCCUCUCUUUTT against Defb23 | inactive: 0.0502

Quoted at random: two records from the list
Row | Sequence | z-score
20 | GGUAAAUGGUUUAACUACGTT against Tmem117 | inactive: -0.68
5 | GCAGCAGUGUUCACCAAAATT against Aldh1a3 | inactive: -0.73

Continued:

Row | Sequence | z-score
24 | GCUCUCUCUCUUCUUACUGTT against Olfr1160 | active: -2.16
25 | GCAGGAGUCAAACGAGUACTT against Vim | inactive: -0.837
26 | GGAACCAGUGGCUUAGGAATT against Pclaf | inactive: 0.39
27 | GCUCCUGAUUUUGACUAUCTT against Macir | inactive: -0.466
28 | GGCAGUGGCAAAUCAAGAUTT against Pop1 | inactive: 1.19
29 | CCACAGAAUAAGACAAUAUTT against Fbxo34 | active: -3.03
30 | GGCCAACUGGAGAUAGAUATT against Tamm41 | inactive: 1.19
31 | GGUCAAGAGGGAAAACUUUTT against Ctps | inactive: 0.0558
32 | GGAAAGAGGAAUCAAGAAATT against Slc23a2 | inactive: -1
33 | GGCUUUCCAGAAGACAGAATT against Cyp2s1 | inactive: 0.469
34 | GGUCAAAAGUUCUGGACAGTT against Spin4 | active: 5.6
35 | GUGUCCUGAACACAGCCACTT against Olfr638 | inactive: 1.01
36 | GGACACUGUAAGUGUCAACTT against Rnf186 | inactive: 0.402
37 | GCUUAAGUGCAGGGACCUATT against Ninl | inactive: -1.16
38 | GGAUUUUUACAGAGACAUGTT against Actr6 | inactive: -0.821
39 | GGAGUGACAGUUUUUAUUCTT against Hoxd10 | inactive: -0.369
40 | GGACAAACUGGACUAUUAUTT against Galntl5 | inactive: 0.804
41 | GGAUGAGACCAUCUGCCAATT against Adra1a | inactive: 0.323
42 | GCCCAAGGAUGAACUGCAGTT against Olfr108 | inactive: 0.79
43 | GGGUAACAUGAAAGUGAUCTT against Mybbp1a | inactive: -0.972
44 | GGUGGAUGAAACUCAGUUUTT against Aldh2 | inactive: -0.836
45 | GGCGGAAUCACAUCACUUCTT against Gm5084 | inactive: -0.0725
46 | GCAGAACCGCAUCAUAUUCTT against Ucn | inactive: -0.682

Row | Sequence | z-score
47 | GCAUUGUCGUGUCUUCUCUTT against Tti1 | active: -2.13
48 | CCAAACAGGCUUUUUUCCUTT against Snx31 | inactive: -0.712
49 | GGUAACUUGAGAAACAUCCTT against Rtraf | inactive: 0.0666
50 | GGUGUAAAUGAGCCUUUUUTT against Gimap5 | inactive: -0.214
51 | GCCGCUAUGUUGAUGGACUTT against Zc3h11a | inactive: 1.02
52 | GGAAGAUUUUCUCCAUCUATT against Ttll8 | inactive: 1.1
53 | CCUAGUCCCUCUGUCUCUUTT against Kctd13 | inactive: -1.79
54 | GGAUCACUUUUAGUUUUCUTT against C230013L11Rik | inactive: -0.0242
55 | GGAGCUGAACUCAAUGGUATT against Hoxd3 | inactive: -1.02
56 | GGAUUCAAAGCUUCCUUUATT against Eras | inactive: 0.115
57 | GACCACAAUAUUGAGGAUCTT against Zfp119b | inactive: -0.329
58 | CCCGCCUAAUUCUAAAGUCTT against Aqp8 | inactive: 0.118
59 | GGAUCUACAACAUGGAAAUTT against Mrps21 | inactive: -0.37
60 | GGAACUUCGUCAUCAACAUTT against Tm2d3 | inactive: -0.575
61 | GGCCUUGUACUUACACAAGTT against Rspo1 | inactive: 0.398
62 | GCAUGAUAAGGCAGCCGUATT against Amelx | inactive: 0.333
63 | GCAAGGUAUUCCAUGCUCATT against Psg27 | inactive: -0.616
64 | GGAUCUGACACACAUGAUCTT against Med16 | active: 2.3
65 | CCGUGUGAUCAAUGUGAAUTT against Casq1 | inactive: 0.644
66 | GGUUUGUCAUUUCCUGCCCTT against Gimap3 | inactive: 1.83
67 | GCUAAUUUUUUGAUUGCCCTT against Krtap1-5 | inactive: 1.61
68 | GCCUAUCCGACAACUUAGUTT against Slc25a17 | inactive: 0.136
